# Data as given in PubChem BioAssay AID504834 (National Center for Advancing Translational Sciences (NCATS), 2011).
# Among all 320,000 compounds or so, about 22,000 (6.9%) were called active. The shares of active, inactive and inconclusive entries below differ from those in the screen. Calls come from the whole dose curve; as a rule, active = well fitted inhibition curve with a large enough effect; inconclusive = small, poorly fitted or top-dose-only effect, or another doubt; inactive = no such curve, though single readings can be large or run the other way. Potencies of inconclusive entries are doubtful fits and often do not repeat.
# Assay: Primary qHTS for delayed death inhibitors of the malarial parasite plastid, 96 hour incubation
# Settings: P. falciparum luciferase reporter growth; series mostly up to 28.7 µM
# How it was run: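 96 h incubation, 37 C, 5% CO2, of luciferase-reporter P. falciparum-infected RBCs (2% hematocrit, 0.05% parasitemia final) with test compounds; endpoint luminescence.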
# % is set by controls: 0 for no effect and ±100 for the full control effect; potency is the fitted concentration of half-maximal effect.
SMILES,Potency,"activity change, negative = inhibition"
Clc1ccccc1OCCn1cnc2ccccc21,"inconclusive: 1.47 µM [inhibitor, full curve]",–
COc1ccc(N2CCN(C(=O)CCc3nnc4ccc(N5CCOCC5)nn34)CC2)cc1,"inconclusive: 18.5 µM [inhibitor, single point]",–
O=C(c1cc2ccccc2[nH]1)N(Cc1cccnc1)CC1CCCN(C2CCCCC2)C1 (configuration not stated),"inconclusive: 18.5 µM [inhibitor, single point]",–
NC(=O)c1ccc([N+](=O)[O-])cc1Cl,active: 10.7 µM,–
CCc1ccc(NC(=O)c2cc(-c3ccc(OC)cc3)on2)cc1,"inconclusive: 14.7 µM [inhibitor, partial curve, poor fit]",–
COc1ccc(NC2=C(Cl)C(=O)N(c3ccccc3)C2=O)c(OC)c1,"inconclusive: 3.7 µM [inhibitor, full curve, poor fit]",–
C=CCN1C=C2C(=O)C(C)(OC(=O)CCc3ccccc3)C(=O)C=C2C=C1c1ccc(C#N)cc1 (configuration not stated),"inconclusive: 10.4 µM [inhibitor, single point]",–
Cc1ccc(NC(=O)Cc2nn(C)c(=O)c3ccccc23)cc1F,"inconclusive: 0.465 µM [inhibitor, partial curve, poor fit]",–
C=CCn1c(SCc2cc(C(=O)OC)c(C)o2)nnc1-c1ccncc1,–,inactive: -0.417% [at 5.75 µM]
CCCS(=O)(=O)c1c(S(=O)(=O)CCC)c2cnccn2c1C(=O)c1ccc(OC)cc1,"inconclusive: 4.15 µM [inhibitor, partial curve, poor fit]",–
COc1ccc(S(=O)(=O)N2CCCCCC2)cc1C(=O)N(C)CCOc1ccccc1,"inconclusive: 16.5 µM [inhibitor, single point]",–
O=C(NCCN1C(=O)S/C(=C/c2ccccc2)C1=O)C1CCCN1C(=O)c1cccs1 (configuration not stated),"inconclusive: 10.4 µM [inhibitor, single point]",–
COc1ccc(CCNC(=O)CCC(=O)Nc2ccc3nc(N4CCN(C)CC4)cc(C)c3c2)cc1OC,"inconclusive: 18.5 µM [inhibitor, single point]",–
Cc1oc(C(C)(C)C)cc1C(=O)Nc1ccc(C(=O)O)cc1,"inconclusive: 18.5 µM [inhibitor, single point]",–
CC1Cc2ccccc2N1C(=O)CSc1nn2c(=O)c(C(C)(C)C)nnc2s1 (configuration not stated),"inconclusive: 11.7 µM [inhibitor, single point]",–
Cc1ccc(-n2cc[nH]c2=S)c(C)c1,"inconclusive: 18.5 µM [inhibitor, single point]",–
O=S(=O)(c1cccs1)N1CCC(CO)(Cc2cccc(F)c2)CC1,"inconclusive: 10.4 µM [inhibitor, single point]",–

# Single entries from the entries so far.
# Potency with COc1ccc(N2CCN(C(=O)CCc3nnc4ccc(N5CCOCC5)nn34)CC2)cc1 reads inconclusive: 18.5 µM [inhibitor, single point]
# Potency with Cc1oc(C(C)(C)C)cc1C(=O)Nc1ccc(C(=O)O)cc1 reads inconclusive: 18.5 µM [inhibitor, single point]
